No constants are given. Whether binding was seen depends on the method and setting. Some entries that bind do so weakly or less than the wild type.
Biological target: Mouse Epigen (mouse (Mus musculus)) (UniProt Q924X1)
Experiment: SPR, 25 C

- binding: binds
B1: Antibody III (antibody, mouse IgG1, kappa, V domains shown)
VH: QVQLQQSGPELVKPGASVKISCKASGYTFTDAYINWVKQRPGQGLEWIGWIWPGPVITYYNPKFKGKATLTVDKSSSTAYMLLSSLTSEDSAFYFCARREVLSPFAYWGQGTLVTVSA
VL: DVLMTQTPLSLPVSLGDQASISCRSSQSIVHSTGNTYLEWYLQKPGQSPKLLIYKVSNRFSGVPDRFSGSGSGTDFTLKISRVEAEDLGVYYCFHGTHVPYTFGGGTKLEIKR

Reference: patent publication US20210403547A1
